Results are given in words; binding and its absence hold for the method and conditions named. Binding calls can cover weak binding; strength is not graded here.

This test has as its target AC012254.2 (human). Kind of test: two-hybrid.

B1: TMEM258 (protein, UniProt P61165 1-79)
chain: MELEAMSRYTSPVNPAVFPHLTVVLLAIGMFFTAWFFVYEVTSTKYTRDIYKELLISLVASLFMGFGVLFLLLWVGIYV
As to B1, the binding result was “binds”.
